Values quoted from earlier work in patent US10441577B2, “Medicament for treatment of liver cancer” (HELMHOLTZ ZENTRUM FUER INFEKTIONSFORSCHUNG, priority 2011, dated 2019).

The chains behind the UniProt entries cited, without tags or fusion partners.
UniProt Q16539, whole entry: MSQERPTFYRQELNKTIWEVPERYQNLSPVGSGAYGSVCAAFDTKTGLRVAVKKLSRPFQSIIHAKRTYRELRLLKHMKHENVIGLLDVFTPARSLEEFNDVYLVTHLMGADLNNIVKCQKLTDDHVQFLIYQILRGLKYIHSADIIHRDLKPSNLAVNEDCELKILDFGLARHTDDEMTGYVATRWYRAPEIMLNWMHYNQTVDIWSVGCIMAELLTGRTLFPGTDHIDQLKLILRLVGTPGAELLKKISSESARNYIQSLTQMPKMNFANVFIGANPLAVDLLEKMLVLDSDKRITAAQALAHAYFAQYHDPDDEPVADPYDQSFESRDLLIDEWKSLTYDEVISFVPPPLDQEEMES

Target: Mapk14 (Homo sapiens, UniProt Q16539)
Conditions: read-out: IC50 for Mapk14; cited from earlier work

CN(C)C(=O)C(=O)c1cn(C)c2cc(Cl)c(C(=O)N3CCC(Cc4ccc(F)cc4)CC3)cc12 [SX 011]
IC50: 9 nM

Structures were worked out from names or drawings and are uncertain.
